Consider 13 molecules from the supplement of paper PMC8975748.

Where a name gives a salt, the structure may show the parent alone. ± gives the standard deviation of the averaged measurements. This is one part of the list. These are raw signals, not scaled to a control.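 The yeast community starts from one strain carrying four plasmids, each with an amino-acid or uracil synthesis gene and a fluorescent protein. Random plasmid loss creates mixed prototroph and auxotroph subpopulations. Cells were fixed and counted by automated confocal fluorescence imaging, and DMSO-treated wells served as the vehicle reference.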

In the experiment the test system is Saccharomyces cerevisiae BY4741 SeMeCo community. Nature of the experiment: imaged cell count per well (cells); higher = more cells. As to conditions: 10 µM; 24 h; SM minimal medium. As for the experimental part:
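Same SeMeCo high-content imaging drug screen: Selleck FDA-approved drugs at 10 µM, 24 h in SM medium, 384-well plates, 3 replicates.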
For `Cc1c(-c2ccccc2)oc2c(C(=O)OCCN3CCCCC3)cccc2c1=O` [Flavoxate HCl], the “imaged cell count per well” value turned out to be 22100 ± 4900.

Regarding `CCC(C)(Oc1ccc(C2(c3ccc(OC(C)(CC)C(=O)O)cc3)CCCCC2)cc1)C(=O)O` (stereo not drawn) [Clinofibrate], the “imaged cell count per well” value was determined as 11200 ± 5600. With `O=C1OC(CN2CCOCC2)CN1/N=C/c1ccc([N+](=O)[O-])o1` (stereo not drawn) [Furaltadone HCl], the “imaged cell count per well” value turned out to be 19200 ± 1900. Take `CCCCCCCN(CC)CCCC(O)c1ccc(NS(C)(=O)=O)cc1` (stereo not drawn) [Ibutilide Fumarate]: the “imaged cell count per well” value was 22600 ± 5600.

In the case of `O=C1CN2Cc3c(ccc(Cl)c3Cl)N=C2N1` [Anagrelide HCl], the “imaged cell count per well” value was determined as 21000 ± 11000. For the molecule `O=c1[nH]cnc2c1ncn2[C@H]1CC[C@@H](CO)O1` [Didanosine], the “imaged cell count per well” value stood at 25400 ± 3000. With `NC(CO)(CO)CO` [Trometamol], the “imaged cell count per well” value came out at 28300 ± 7600. Regarding `CN(C)CCCN1c2ccccc2Sc2ccccc21` [Promazine hydrochloride], the “imaged cell count per well” value was found to be 16600 ± 5300. Consider `COc1ccccc1OCC(O)CN1CCN(CC(=O)Nc2c(C)cccc2C)CC1` (stereo not drawn) [Ranolazine], for which the “imaged cell count per well” value is 21100 ± 2000. As to `C[C@@H](O)[C@H]1C(=O)N2C(C(=O)O)=C(S[C@@H]3CN[C@H](C(=O)N(C)C)C3)[C@H](C)[C@H]12` [Meropenem], the “imaged cell count per well” value is 25000 ± 9900.

In the case of `Cc1onc(-c2c(Cl)cccc2Cl)c1C(=O)N[C@@H]1C(=O)N2[C@@H]1SC(C)(C)[C@@H]2C(=O)O` [Dicloxacillin Sodium], the “imaged cell count per well” value was found to be 27000 ± 5600. Take `C#C[C@]1(O)CC[C@H]2[C@@H]3CCC4=CCCC[C@@H]4[C@H]3C(=C)C[C@@]21CC` [Desogestrel]: the “imaged cell count per well” value turned out to be 25000 ± 8200.

As to `Clc1ccc(COC(Cn2ccnc2)c2ccc(Cl)cc2Cl)cc1` (stereo not drawn) [Econazole nitrate], the “imaged cell count per well” value is 4020 ± 1600.
